Test results published in patent publication US10206397B2, “N-acylimino heterocyclic compounds” (BASF SE, priority 2013, dated 2019).
Some of these results come from one statement about several compounds together.

Columns and labels:
[1] = test system: green peach aphid (Myzus persicae); assay: Green peach aphid systemic test, artificial diet in 96-well microtiter plates; format: in vivo; settings: 2500 ppm; adult aphids on treated artificial diet; 3 days
Description: B.1 Green Peach Aphid (Myzus persicae)
For evaluating control of green peach aphid (Myzus persicae) through systemic means, the test unit consists of 96-well-microtiter plates containing liquid artificial diet under an artificial membrane.
The compounds are formulated using a solution containing 75% v/v water and 25% v/v DMSO. Different concentrations of formulated compounds are pipetted into the aphid diet, using a custom built pipetter, at two replications.
After application, 5-8 adult aphids are placed on the artificial membrane inside the microtiter plate wells. The aphids are then allowed to suck on the treated aphid diet and incubated at about 23+1° C. and about 50+5% relative humidity for 3 days. Aphid mortality and fecundity is then visually assessed.

[2] = test system: vetch aphid (Megoura viciae); assay: Vetch aphid contact/systemic test on broad bean leaf disks; format: in vivo; settings: 2500 ppm; sprayed broad bean leaf disks; 5 days
Protocol: B.2 Vetch Aphid (Megoura viciae)
For evaluating control of vetch aphid (Megoura viciae) through contact or systemic means the test unit consisted of 24-well-microtiter plates containing broad bean leaf disks.
The compounds were formulated using a solution containing 75% v/v water and 25% v/v DMSO. Different concentrations of formulated compounds were sprayed onto the leaf disks at 2.5 μl, using a custom built micro atomizer, at two replications.
After application, the leaf disks were air-dried and 5-8 adult aphids were placed on the leaf disks inside the microtiter plate wells. The aphids were then allowed to suck on the treated leaf disks and were incubated at about 23±1° C. and about 50±5% relative humidity for 5 days. Aphid mortality and fecundity was then visually assessed.

Row | SMILES | mortality in comparison with untreated controls [1] | mortality in comparison with untreated controls [2]
1 | CCCCC1CC1(C#N)C(=O)N=c1ccccn1Cc1ccc(Cl)nc1 (mixture of isomers) [I.B-6] | at least 75% | at least 75%
2 | CC(C)(C)CC1CC1(C#N)C(=O)N=c1ccccn1Cc1ccc(Cl)nc1 (mixture of isomers) [I.B-12] | at least 75% | at least 75%
3 | CCCC(C)C1CC1(C#N)C(=O)N=c1ccccn1Cc1ccc(Cl)nc1 (mixture of isomers) [I.B-14] | at least 75% | at least 75%
4 | N#CC1(C(=O)N=c2ccccn2Cc2ccc(Cl)nc2)CC1CCc1ccccc1 (mixture of isomers) [I.B-18] | at least 75% | –
5 | CCC(C)C(C)C1CC1(C#N)C(=O)N=c1ccccn1Cc1ccc(Cl)nc1 (mixture of isomers) [I.B-19] | at least 75% | at least 75%
6 | N#CC1(C(=O)N=c2ccccn2Cc2ccc(Cl)nc2)CC1C1CCOCC1 (mixture of isomers) [I.B-20] | at least 75% | at least 75%
7 | CCCCCC1CC1(C#N)C(=O)N=c1ccccn1Cc1ccc(Cl)nc1 (mixture of isomers) [I.B-21] | at least 75% | at least 75%
8 | CCCCCC=CCCC1CC1(C#N)C(=O)N=c1ccccn1Cc1ccc(Cl)nc1 (mixture of isomers) [I.B-23] | at least 75% | –
9 | CC(C)(Cc1cccnc1)C1CC1(C#N)C(=O)N=c1ccccn1Cc1ccc(Cl)nc1 (mixture of isomers) [I.B-25] | at least 75% | at least 75%
10 | CC(C)(C)C1CC1(C#N)C(=O)N=c1ccccn1Cc1ccc(Cl)nc1 (mixture of isomers) [I.B-26] | at least 75% | at least 75%
11 | N#CC1(C(=O)N=c2ccccn2Cc2ccc(Cl)nc2)CC1C1CCCCC1 (mixture of isomers) [I.B-27] | at least 75% | –
12 | N#CC1(C(=O)N=c2ccccn2Cc2ccc(Cl)nc2)CC1C1CCCSC1 (mixture of isomers) [I.B-29] | at least 75% | at least 75%
13 | CC(=O)OC(C)C1CC1(C#N)C(=O)N=c1ccccn1Cc1ccc(Cl)nc1 (mixture of isomers) [I.B-32] | at least 75% | at least 75%
14 | CC(C)OC(C)C1CC1(C#N)C(=O)N=c1ccccn1Cc1ccc(Cl)nc1 (mixture of isomers) [I.B-33] | at least 75% | at least 75%
15 | CCCOCCC1CC1(C#N)C(=O)N=c1ccccn1Cc1ccc(Cl)nc1 (mixture of isomers) [I.B-34] | at least 75% | at least 75%
16 | CSCC(C)C1CC1(C#N)C(=O)N=c1ccccn1Cc1ccc(Cl)nc1 (mixture of isomers) [I.B-35] | at least 75% | at least 75%
17 | CC1C=CCCC1C1CC1(C#N)C(=O)N=c1ccccn1Cc1ccc(Cl)nc1 (mixture of isomers) [I.B-36] | at least 75% | at least 75%
18 | CC1CCC(C2CC2(C#N)C(=O)N=c2ccccn2Cc2ccc(Cl)nc2)CC1 (mixture of isomers) [I.B-37] | at least 75% | at least 75%
19 | CC1(C)CCC(C2CC2(C#N)C(=O)N=c2ccccn2Cc2ccc(Cl)nc2)O1 (mixture of isomers) [I.B-38] | at least 75% | at least 75%
20 | N#CC1(C(=O)N=c2ccccn2Cc2ccc(Cl)nc2)CC1CC1CCOCC1 (mixture of isomers) [I.B-39] | at least 75% | at least 75%
21 | COCCOC(C)C1CC1(C#N)C(=O)N=c1ccccn1Cc1ccc(Cl)nc1 (mixture of isomers) [I.B-41] | at least 75% | at least 75%

Row | SMILES | mortality in comparison with untreated controls [1] | mortality in comparison with untreated controls [2]
22 | CCOC(=O)C1CC1C1CC1(C#N)C(=O)N=c1ccccn1Cc1ccc(Cl)nc1 (mixture of isomers) [I.B-43] | at least 75% | at least 75%
23 | COC(C)C1CC1(C#N)C(=O)N=c1ccccn1Cc1ccc(Cl)nc1 (mixture of isomers) [I.B-44] | at least 75% | at least 75%
24 | CC(C)C(C)C1CC1(C#N)C(=O)N=c1ccccn1Cc1ccc(Cl)nc1 (mixture of isomers) [I.B-45] | at least 75% | at least 75%
25 | N#CC1(C(=O)N=c2ccccn2Cc2ccc(Cl)nc2)CC1C1CCCOC1 (mixture of isomers) [I.B-46] | at least 75% | at least 75%
26 | Cc1ncsc1C1CC1(C#N)C(=O)N=c1ccccn1Cc1ccc(Cl)nc1 (mixture of isomers) [I.B-47] | at least 75% | at least 75%
27 | N#CC1(C(=O)N=c2ccccn2Cc2ccc(Cl)nc2)CC1CC1CCSCC1 (mixture of isomers) [I.B-48] | at least 75% | at least 75%
28 | CC(OC1CCCCC1)C1CC1(C#N)C(=O)N=c1ccccn1Cc1ccc(Cl)nc1 (mixture of isomers) [I.B-50] | – | at least 75%
29 | COC1CCC(C)C(C2CC2(C#N)C(=O)N=c2ccccn2Cc2ccc(Cl)nc2)O1 (mixture of isomers) [I.B-51] | at least 75% | –
30 | CC(C)C1CCC(CC2CC2(C#N)C(=O)N=c2ccccn2Cc2ccc(Cl)nc2)CC1 (mixture of isomers) [I.B-52] | at least 75% | –
31 | CC(=O)OCCCCCCC1CC1(C#N)C(=O)N=c1ccccn1Cc1ccc(Cl)nc1 (mixture of isomers) [I.B-53] | – | at least 75%
32 | N#CC1(C(=O)N=c2ccccn2Cc2ccc(Cl)nc2)CC1c1cccc(C(F)(F)F)c1 (mixture of isomers) [I.B-54] | at least 75% | at least 75%
33 | N#CC1(C(=O)N=c2ccccn2Cc2ccc(Cl)nc2)CC1c1ccccn1 (mixture of isomers) [I.B-55] | at least 75% | at least 75%
34 | COC(=O)C1(C)CC1(C#N)C(=O)N=c1ccccn1Cc1ccc(Cl)nc1 (mixture of isomers) [I.B-60] | at least 75% | at least 75%
35 | N#CC1(C(=O)N=c2ccccn2Cc2ccc(Cl)nc2)CC1Cc1ccccc1 (mixture of isomers) [I.B-61] | at least 75% | at least 75%
36 | N#CC1(C(=O)N=c2ccccn2Cc2ccc(Cl)nc2)CC1CC(F)(F)F (mixture of isomers) [I.B-62] | at least 75% | at least 75%
37 | N#CC1(C(=O)N=c2ccccn2Cc2ccc(Cl)nc2)CC1C1CCOC1 (mixture of isomers) [I.B-63] | at least 75% | at least 75%
38 | N#CC1(C(=O)N=c2ccccn2Cc2ccc(Cl)nc2)CC1c1ccccc1 (single isomer, unassigned) [I.B-16] | at least 75% | at least 75%
39 | CC(Oc1ccccc1)C1CC1(C#N)C(=O)N=c1ccccn1Cc1ccc(Cl)nc1 (single isomer, unassigned) [I.B-49] | at least 75% | at least 75%
40 | N#CC1(C(=O)N=c2ccccn2Cc2ccc(Cl)nc2)CC1c1cccc([N+](=O)[O-])c1 (single isomer, unassigned) [I.B-56] | at least 75% | at least 75%
41 | C=C(C)CC(C#N)(CC(=C)C)C(=O)N=c1ccccn1Cc1ccc(Cl)nc1 [I.A-14] | – | at least 75%
42 | CC(C)=CCC(C#N)(CC=C(C)C)C(=O)N=c1ccccn1Cc1ccc(Cl)nc1 [I.A-17] | at least 75% | –
